Reference: article PMC6488192 (2019)

Legend:
Test in all cases: pull-down; TAP-tagged bait recovered on Dynabeads IgG from whole-cell or mitochondria-enriched T. brucei extract (~2 mg protein, with RNase inhibitor); washes 150 mM NaCl, 1 mM EDTA, 10 mM MgOAc, 0.1% NP-40, 25 mM Tris pH 8.0; endogenous partners by Western blot, REL1 by radiolabelled self-adenylation; mutants normalised to WT
[1] = molecular target: ^H2F1 Znf1 R/K>A with TAP tag (T. brucei) (UniProt Q585P3)
[2] = molecular target: ^H2F1 Znf2 R/K>A with TAP tag (T. brucei) (UniProt Q585P3)
[3] = molecular target: ^H2F1 Znf3 R/K>A with TAP tag (T. brucei) (UniProt Q585P3)
[4] = molecular target: ^H2F1 Znf4 R/K>A with TAP tag (T. brucei) (UniProt Q585P3)
[5] = molecular target: ^H2F1 Znf5 C2>A2 with TAP tag (T. brucei) (UniProt Q585P3)
[6] = molecular target: ^H2F1 Znf5 R/K>A with TAP tag (T. brucei) (UniProt Q585P3)

Measured: binding

B1: REH2-Associated Factor 1 (^H2F1), endogenous (protein, UniProt Q585P3 23-524)
chain: CHHPLRIPSVQLAAPRSHTHEDIAYASCPACSRVVHMCDMLTHLITAHRELDQTHCRKMCTERLALYERVIGVPLKKSELTSSGRRVLDFLPTVLPTGYMCNWCDRRSDVYATRDKFLKHVADVHTDIDLEEVEPHVPLPPRGVVVEKSNGDGGPQPTRRLNGVVAVAEKSEPINAVPRILGISLPRGVDRPLKATAQFSDTEFPCELCNRTFNSEIDLLQHLETRHPDGTAEGPAGVDSAAIADVAQFSAKEATTGGDQRVHVICDLCVSSSKVYKMPSALFSHIRFKHPNEDAAFHVERLIREQKTVSSFVCTVCQKAFASAAALDGHFNSKHAEQGEAQNVVGRVTANNCWWCHDCEKGFSSAKGLHGHMQNKHGLSSQTHPCPACKRVFADIYSLEEHLSLQHKTIRLSDIGLLTHVKCSTCERFFLSHEDLHRHAVKHHKKDPRAPAQPFEAPTSASHVAASTSAAVPSEVEATASPQGPRKVKKRKKTTEVSEVTS
binds: all assays above

Results are given in words; binding and its absence hold for the method and conditions named. Binding seen in cells or lysates may run through a third protein. Binding can be weak; no strength is given.
